Measurements published in PubChem BioAssay AID504444 (National Center for Advancing Translational Sciences (NCATS), 2011).
Among all 360,000 compounds or so, about 7,500 (2.1%) were called active. Inconclusive results, whose numbers are uncertain, are shown with a selection of clear calls. Calls follow the shape of the dose curve; as a rule, active = well fitted inhibition curve with a large enough effect; inconclusive = small, poorly fitted or top-dose-only effect, or effect the other way; inactive = flat fitted curve, though single readings scatter. Where the call is inconclusive, the potency comes from a doubtful curve fit.

test: Nrf2 qHTS screen for inhibitors; details: A549 ARE-Fluc reporter, luciferase luminescence, 18-24 h; activity change, negative = inhibition: at 46 µM (top of the series); also: nearly all actives have a fitted effect of over 60% in size
Method in brief: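 Quantitative HTS in A549 cells stably bearing an antioxidant response element-firefly luciferase construct. Inhibition of Nrf2-driven transcription was scored by luminescence after 18-24 h of compound exposure at 37 °C.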
% is scaled to controls: 0 for no effect and ±100 for the full control effect; potency is read from the fitted curve at half-maximal effect.

Row | SMILES | Potency | activity change, negative = inhibition
1 | CC(C)CC(=O)NC(=S)Nc1ccccc1C(F)(F)F | inconclusive: 23.1 µM [activator, single point] | 
2 | Cc1cc(C)cc(OCCCn2c(CCNC(=O)C3CCCCC3)nc3ccccc32)c1 | inconclusive: 25.9 µM [falling, partial curve, poor fit] | 
3 | COc1ccc2ncnc(NCC3CCCO3)c2c1-c1ccc2c(c1)OCO2 (configuration not stated) | inconclusive: 3.26 µM [falling, partial curve, poor fit] | 
4 | CCOc1ccccc1N(CC(=O)Nc1ccc(C)cc1)S(C)(=O)=O | inconclusive: 4.61 µM [falling, single point] | 
5 | Cc1cc(C)c(C#N)c(SCc2[nH]nc3c2C(c2ccc(F)cc2)C(C#N)=C(N)O3)n1 (configuration not stated) | inactive | 
6 | COc1ccc(NC(=O)CSc2oc(-c3ccco3)nc2S(=O)(=O)c2ccc(Br)cc2)c(OC)c1 |  | inactive: -1.6% [at 9.27 µM]
7 | COC(=O)C1C(=O)C=C(N2CCOCC2)CC1(C)C (configuration not stated) | inactive | 
8 | CC(C)c1ccc(S(=O)(=O)Nc2ccc(-n3cnnn3)cc2)cc1 | inconclusive: 25.9 µM [falling, partial curve, poor fit] | 
9 | Cc1c(CCC(C)C)c(-n2ccnc2C)n2c(nc3ccccc32)c1C#N | inactive | 
10 | CN(C(=O)CSc1ccc2c(c1)OCCO2)c1ccccc1 | inconclusive: 20.6 µM [activator, single point] | 
11 | S=C(NCc1ccccc1)C(=S)NCc1ccccc1 | inconclusive: 8.2 µM [activator, partial curve, poor fit] | 
12 | CC(C)Cn1c(=O)c2sccc2n2c(CCCC(=O)NCc3ccccc3Cl)nnc12 | inconclusive: 1.16 µM [activator, partial curve, poor fit] | 
13 | C(=N\N1CCN(c2ccccn2)CC1)/c1ccco1 | inconclusive: 14.6 µM [activator, partial curve, poor fit] | 
14 | O=C(COC(=O)C12CC3CC(CC(O)(C3)C1)C2)Nc1ccc(Cl)cc1F | inconclusive: 18.4 µM [activator, partial curve] | 
15 | COc1ccccc1C1CC(c2ccc(Br)cc2)=NN1C(=O)c1cccnc1 (configuration not stated) | inconclusive: 14.6 µM [falling, partial curve] | 
16 | COc1cccc(Cn2cccc(NC(=O)Nc3ccc(C#N)cc3)c2=O)c1 | inconclusive: 18.4 µM [falling, single point] | 
17 | CCC1(c2ccc(F)cc2)NC(=O)N(CC(=O)N2c3ccccc3NC(=O)C2(C)C)C1=O (configuration not stated) | inconclusive: 1.64 µM [falling, partial curve, poor fit] | 
18 | COc1cc(/C=N/NC(N)=O)c(Br)cc1OCC(=O)Nc1ccccc1C | inconclusive: 18.4 µM [falling, single point] | 
19 | CCOc1ccccc1N1CC(C(=O)Nc2cccc(S(=O)(=O)N3CCCCC3)c2)CC1=O (configuration not stated) | inconclusive: 32.6 µM [falling, single point] | 
20 | Cc1ccc2cc(CN(Cc3ccco3)C(=O)NC3CCCCC3)c(=O)[nH]c2c1C | inconclusive: 23.1 µM [falling, partial curve] | 
21 | Cc1ccc(N(C(=O)CNC(=O)c2ccco2)C(C(=O)NC2CCCC2)c2ccncc2)c(C)c1 (configuration not stated) | inconclusive: 2.06 µM [activator, partial curve] | 

Row | SMILES | Potency | activity change, negative = inhibition
22 | Cc1cccc(-c2nc3c4ccccc4nc(NCc4ccc(Cl)cc4)n3n2)c1 | inconclusive: 18.4 µM [activator, single point] | 
23 | CCCNC(=O)c1cccc(S(=O)(=O)N2CC3(C)CC2CC(C)(C)C3)c1 (configuration not stated) | inconclusive: 29.1 µM [falling, single point] | 
24 | CC(=O)c1c(C(C)=O)c(C)n(-c2ccc(C)c(NC(=O)c3ccccc3Cl)c2)c1C | active: 14.6 µM | 
25 | Cc1sc2nc(CSC(C)C(=O)Nc3cc(S(C)(=O)=O)ccc3Cl)[nH]c(=O)c2c1C (configuration not stated) | inactive | 
26 | COC(=O)C1(S(=O)(=O)c2cc(Br)cc3c2N(C(C)=O)CC3)CC1 | inconclusive: 29.1 µM [activator, single point] | 
27 | CC(=O)Nc1sc2c(c1C(c1ccc(Cl)cc1)N1CCOCC1)CCCC2 (configuration not stated) | inconclusive: 18.4 µM [falling, single point] | 
28 | COc1cc(C(=O)Nc2cc3c4c(c2)CC(=O)N4CCC3)cc(OC)c1OC | inactive | 
29 | CCSc1nnc(NC(=O)[C@@H](NC(=O)c2cccc(C)c2)C(C)C)s1 | inactive | 
30 | Cc1ccccc1C(=O)Nc1ccc2c(c1)OCO2 | inconclusive: 0.164 µM [activator, full curve, poor fit] | 
31 | CCN(CC)S(=O)(=O)c1cccc(C(=O)N/N=C/c2ccc(O)c(O)c2O)c1 | inactive | 
32 | Cn1c(-c2ccccc2)c(/C=N/NC(=O)c2ccc(O)cc2)c2ccccc21 | inconclusive: 7.31 µM [activator, partial curve, poor fit] | 
33 | CCCNC(=O)c1ccc(N2CCC3(CC2)CC(c2cccc(Br)c2)=NO3)c(N)c1 | inconclusive: 29.1 µM [falling, single point] | 
34 | CSC1=C(C#N)C(c2ccc(Cl)cc2)C2=C(CC(C)(C)CC2=O)N1 (configuration not stated) | inconclusive: 14.6 µM [falling, single point] | 
35 | O=C(CC1C(=O)OCCN1Cc1ccccc1)Nc1cccc(C(F)(F)F)c1 (configuration not stated) | inactive | 
36 | COc1ccc(C(=O)NNC(=S)NC(=O)C(C)(C)C)cc1 | inconclusive: 18.4 µM [falling, single point] | 
37 | COc1ccc(Br)c2oc(S)cc(=O)c12 | inactive | 
38 | CN(C(=O)c1ccc(NC(=O)Cc2ccc(NC(=O)C3CCCN(C(=O)CCc4ccccc4)C3)cc2)cc1)C1CC1 (configuration not stated) | active: 11.6 µM | 
39 | Cc1oc(-c2cc(F)ccc2F)nc1CN1CCN(c2ncnc3ccccc23)CC1 | active: 25.9 µM | 
40 | O=C(COC(=O)c1ccc(Cl)cc1O)NCCN1C(=O)CSC1=O | inactive | 
41 | N#C/C(=C(/O)c1cc2ccccc2o1)c1nc2ccccc2s1 | inconclusive: 2.06 µM [activator, partial curve] | 
42 | Cc1cccc(OCC(=O)Nc2ccc(C(=O)Nc3ccccc3C(=O)O)cc2)c1C | inconclusive: 29.1 µM [falling, single point] | 

Given as comma-separated lines: part of the list above
Row,SMILES,Potency,"activity change, negative = inhibition"
1,CC(C)CC(=O)NC(=S)Nc1ccccc1C(F)(F)F,"inconclusive: 23.1 µM [activator, single point]",
27,CC(=O)Nc1sc2c(c1C(c1ccc(Cl)cc1)N1CCOCC1)CCCC2 (configuration not stated),"inconclusive: 18.4 µM [falling, single point]",
34,CSC1=C(C#N)C(c2ccc(Cl)cc2)C2=C(CC(C)(C)CC2=O)N1 (configuration not stated),"inconclusive: 14.6 µM [falling, single point]",
